# Results published in the supplement of paper PMC8728848.
# The other results are listed elsewhere or left out.
# B1: AT3G09350(27) (Arabidopsis thaliana), Q84J81 (protein)
# chain: MAKDGPNWDGLLKWSLSHADGTRPTRQLSEEDRKWFMEAMQSQTVDVVKRMKEITLVMQTPEQVLVEHGVTPEDIQDLLDELQEHVESIDMANDLHSIGGLVPLLSFLKNSHANIRAKAADVVSTIVQNNPRSQELVMETNALESLLSNFTSDTDIHARTQALGAISSLIRHNKPGVTAFKLANGYAGLRDALASDSVRFQRKALNLLQYLLQEDDSDRSIATGLGFPRVMMHLASSDDAEIREAALRGLLELSREKNDGSSSIDKSDEKLRQLLEERIKGITLMSQEDLETVKEERQLVDLLWSICYNEPSSLREKGLVVLPGEDALPPDVASKLFEPPLRASAANRNATEKKDEPMKLLGP
# Key:
# Assay in all cases: glycan array binding signal (z-score within array); higher = stronger binding
# Settings in all cases: glycan notation: IUPAC condensed, linker removed
# Fuc(a1-2)Gal = biological target: Fuc(a1-2)Gal
# In short: (§1)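 The binding signal is a Z-score computed within each array and averaged over linkers. Arrays of the same protein sequence at different concentrations or buffers were also averaged together. Data originate from 3228 arrays in the Consortium for Functional Glycomics database, kept only where the protein sequence was available.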
# Fuc(a1-2)Gal(b1-3)GalNAc = biological target: Fuc(a1-2)Gal(b1-3)GalNAc
# In short: as §1
# [1] = biological target: Fuc(a1-2)Gal(b1-3)GalNAc(a1-3)[Fuc(a1-2)]Gal(b1-4)Glc
# In short: as §1
# [2] = biological target: Fuc(a1-2)Gal(b1-3)GalNAc(a1-3)[Fuc(a1-2)]Gal(b1-4)GlcNAc
# In short: as §1
# [3] = biological target: Fuc(a1-2)Gal(b1-3)GalNAc(b1-3)Gal
# In short: as §1
# [4] = biological target: Fuc(a1-2)Gal(b1-3)GalNAc(b1-3)Gal(a1-4)Gal(b1-4)Glc
# In short: as §1
# [5] = biological target: Fuc(a1-2)Gal(b1-3)GalNAc(b1-4)[Neu5Ac(a2-3)]Gal(b1-4)Glc
# In short: as §1
# Fuc(a1-2)Gal(b1-3)GlcNAc = biological target: Fuc(a1-2)Gal(b1-3)GlcNAc
# In short: as §1
# [6] = biological target: Fuc(a1-2)Gal(b1-3)GlcNAc(b1-2)Man(a1-3)[Fuc(a1-2)Gal(b1-3)GlcNAc(b1-2)Man(a1-6)]Man(b1-4)GlcNAc(b1-4)GlcNAc
# In short: as §1
# [7] = biological target: Fuc(a1-2)Gal(b1-3)GlcNAc(b1-2)Man(a1-3)[Fuc(a1-2)Gal(b1-3)GlcNAc(b1-2)Man(a1-6)]Man(b1-4)GlcNAc(b1-4)[Fuc(a1-6)]GlcNAc
# In short: as §1
# [8] = biological target: Fuc(a1-2)Gal(b1-3)GlcNAc(b1-3)Gal(b1-4)Glc
# In short: as §1
# [9] = biological target: Fuc(a1-2)Gal(b1-3)GlcNAc(b1-3)GalNAc
# In short: as §1
# [10] = biological target: Fuc(a1-2)Gal(b1-3)GlcNAc(b1-3)[Fuc(a1-2)Gal(b1-3)GlcNAc(b1-6)]GalNAc
# In short: as §1
# [11] = biological target: Fuc(a1-2)Gal(b1-3)GlcNAc(b1-3)[Gal(b1-4)GlcNAc(b1-6)]Gal(b1-4)Glc
# In short: as §1
# [12] = biological target: Fuc(a1-2)Gal(b1-3)GlcNAc(b1-3)[Neu5Ac(a2-6)Gal(b1-4)GlcNAc(b1-6)]Gal(b1-4)Glc
# In short: as §1
# [13] = biological target: Fuc(a1-2)Gal(b1-3)GlcNAc6S
# In short: as §1
# [14] = biological target: Fuc(a1-2)Gal(b1-3)[Fuc(a1-4)]GlcNAc
# In short: as §1
# [15] = biological target: Fuc(a1-2)Gal(b1-3)[Fuc(a1-4)]GlcNAc(b1-2)Man(a1-3)[Fuc(a1-2)Gal(b1-3)[Fuc(a1-4)]GlcNAc(b1-2)Man(a1-3)]Man(b1-4)GlcNAc(b1-4)GlcNAc
# In short: as §1
# [16] = biological target: Fuc(a1-2)Gal(b1-3)[Fuc(a1-4)]GlcNAc(b1-2)Man(a1-3)[Fuc(a1-2)Gal(b1-3)[Fuc(a1-4)]GlcNAc(b1-2)Man(a1-6)]Man(b1-4)GlcNAc(b1-4)[Fuc(a1-6)]GlcNAc(b1-4)[Fuc(a1-6)]GlcNAc
# In short: as §1
# [17] = biological target: Fuc(a1-2)Gal(b1-3)[Fuc(a1-4)]GlcNAc(b1-3)[Fuc(a1-3)[Gal(b1-4)]GlcNAc(b1-6)]Gal(b1-4)Glc
# In short: as §1
# [18] = biological target: Fuc(a1-2)Gal(b1-3)[Fuc(a1-4)]GlcNAc(b1-3)[Gal(b1-4)GlcNAc(b1-6)]Gal(b1-4)Glc
# In short: as §1
# [19] = biological target: Fuc(a1-2)Gal(b1-4)Fuc(a1-3)]GlcNAc(b1-2)Man(a1-3)[Fuc(a1-2)Gal(b1-4)[Fuc(a1-3)]GlcNAc(b1-2)Man(a1-6)]Man(b1-4)GlcNAc(b1-4)GlcNAc
# In short: as §1
# Fuc(a1-2)Gal(b1-4)Glc = biological target: Fuc(a1-2)Gal(b1-4)Glc
# In short: as §1
# Fuc(a1-2)Gal(b1-4)Glc6S = biological target: Fuc(a1-2)Gal(b1-4)Glc6S
# In short: as §1
# Fuc(a1-2)Gal(b1-4)GlcNAc = biological target: Fuc(a1-2)Gal(b1-4)GlcNAc
# In short: as §1
# [20] = biological target: Fuc(a1-2)Gal(b1-4)GlcNAc(b1-2)Man
# In short: as §1
# [21] = biological target: Fuc(a1-2)Gal(b1-4)GlcNAc(b1-2)Man(a1-3)[Fuc(a1-2)Gal(b1-4)GlcNAc(b1-2)Man(a1-6)]Man(b1-4)GlcNAc(b1-4)GlcNAc
# In short: as §1
# [22] = biological target: Fuc(a1-2)Gal(b1-4)GlcNAc(b1-2)Man(a1-3)[Fuc(a1-2)Gal(b1-4)GlcNAc(b1-2)Man(a1-6)]Man(b1-4)GlcNAc(b1-4)[Fuc(a1-6)]GlcNAc
# In short: as §1
# [23] = biological target: Fuc(a1-2)Gal(b1-4)GlcNAc(b1-2)[Fuc(a1-2)Gal(b1-4)GlcNAc(b1-4)]Man(a1-3)[Fuc(a1-2)Gal(b1-4)GlcNAc(b1-2)Man(a1-6)]Man(b1-4)GlcNAc(b1-4)GlcNAc
# In short: as §1
# [24] = biological target: Fuc(a1-2)Gal(b1-4)GlcNAc(b1-3)Gal(b1-4)GlcNAc
# In short: as §1
# [25] = biological target: Fuc(a1-2)Gal(b1-4)GlcNAc(b1-3)Gal(b1-4)GlcNAc(b1-2)Man(a1-3)[Fuc(a1-2)Gal(b1-4)GlcNAc(b1-3)Gal(b1-4)GlcNAc(b1-2)Man(a1-6)]Man(b1-4)GlcNAc(b1-4)GlcNAc
# In short: as §1
# [26] = biological target: Fuc(a1-2)Gal(b1-4)GlcNAc(b1-3)Gal(b1-4)GlcNAc(b1-3)Gal(b1-4)GlcNAc
# In short: as §1
# [27] = biological target: Fuc(a1-2)Gal(b1-4)GlcNAc(b1-3)GalNAc
# In short: as §1
# [28] = biological target: Fuc(a1-2)Gal(b1-4)GlcNAc(b1-3)[Fuc(a1-2)Gal(b1-4)GlcNAc(b1-6)]GalNAc
# In short: as §1
# [29] = biological target: Fuc(a1-2)Gal(b1-4)GlcNAc(b1-3)[Fuc(a1-3)[Gal(b1-4)]GlcNAc(b1-6)]Gal(b1-4)Glc
# In short: as §1
# [30] = biological target: Fuc(a1-2)Gal(b1-4)GlcNAc(b1-6)GalNAc
# In short: as §1
# [31] = biological target: Fuc(a1-2)Gal(b1-4)GlcNAc6S
# In short: as §1
binder,measurement,setting,value
B1,glycan array binding signal (z-score),Fuc(a1-2)Gal,-0.113
same,glycan array binding signal (z-score),Fuc(a1-2)Gal(b1-3)GalNAc,-0.754
same,glycan array binding signal (z-score),[1],0.096
same,glycan array binding signal (z-score),[2],1.02
same,glycan array binding signal (z-score),[3],0.333
same,glycan array binding signal (z-score),[4],-0.536
same,glycan array binding signal (z-score),[5],-0.077
same,glycan array binding signal (z-score),Fuc(a1-2)Gal(b1-3)GlcNAc,-0.162
same,glycan array binding signal (z-score),[6],0.438
same,glycan array binding signal (z-score),[7],0.64
same,glycan array binding signal (z-score),[8],0.444
same,glycan array binding signal (z-score),[9],0.676
same,glycan array binding signal (z-score),[10],0.107
same,glycan array binding signal (z-score),[11],-0.798
same,glycan array binding signal (z-score),[12],-0.247
same,glycan array binding signal (z-score),[13],-0.564
same,glycan array binding signal (z-score),[14],-0.534
same,glycan array binding signal (z-score),[15],-0.391
same,glycan array binding signal (z-score),[16],0.18
same,glycan array binding signal (z-score),[17],-0.224
same,glycan array binding signal (z-score),[18],-0.502
same,glycan array binding signal (z-score),[19],-0.28
same,glycan array binding signal (z-score),Fuc(a1-2)Gal(b1-4)Glc,0.722
same,glycan array binding signal (z-score),Fuc(a1-2)Gal(b1-4)Glc6S,-0.455
same,glycan array binding signal (z-score),Fuc(a1-2)Gal(b1-4)GlcNAc,-0.391
same,glycan array binding signal (z-score),[20],-0.62
same,glycan array binding signal (z-score),[21],-0.309
same,glycan array binding signal (z-score),[22],-0.249
same,glycan array binding signal (z-score),[23],-0.227
same,glycan array binding signal (z-score),[24],-0.759
same,glycan array binding signal (z-score),[25],-0.726
same,glycan array binding signal (z-score),[26],1
same,glycan array binding signal (z-score),[27],-0.428
same,glycan array binding signal (z-score),[28],-0.175
same,glycan array binding signal (z-score),[29],-0.595
same,glycan array binding signal (z-score),[30],0.775
same,glycan array binding signal (z-score),[31],-0.054

# A section of the results above, as a working copy:
binder,measurement,setting,value
B1,glycan array binding signal (z-score),[8],0.444
same,glycan array binding signal (z-score),[9],0.676
